The source of these data is patent publication US5874308A, “Compositions and methods for modulating cell proliferation using growth factor-polysaccharide binding fusion proteins” (priority 1996, dated 1999).

The test system of this data set is SLF dependent bone marrow cell line B6SUtA1. Kind of data set: MTT proliferation assay of SLF-CBD in solution or bound to BMCC. It is filed as cell-based. The protocol:
Samples of purified SLF-CBD were diluted in H-SFM. […] In experiments where BMCC was used, 50 μl of a BMCC suspension in H-SFM was added to each well, and in experiments where no BMCC was used 50 μl of H-SFM alone was added.
Statistical analysis of data was carried out with regression curve fitting in two iterations using non-linear regression analysis from the GraFit version 3.0 statistical analysis program (Erithacus Software Ltd., Staines, U.K.).
Background: Tetrazolium dyes change colour on reduction, which living cells bring about.

[1] abbreviates: BMCC constant at 1 μg/ml, about 2000 pM SLF-CBD.

B1: SLF-CBD: fusion protein: extracellular domain of murine steel factor linked to the cellulose binding domain of Cellulomonas fimi exoglucanase Cex (protein)
chain: KEICGNPVTDNVKDITKLVANLPNDYMITLNYVAGMDVLPSHCWLRDMVIQLSLSLTTLLDKFSNISEGLSNYSIIDKLGKIVDDLVLCMEENAPKNIKESPKRPETRSFTPEEFFSIFNRSIDAFKDFMVASDTSDCVLSSTLGPEKDSRVSVTKPFMLPPVAASSLRNDSSSSNRKAAKAPEDSGLQPTPTPTTPTPTPTTPTPTPTSGPAGCQVLWGVNQWNTGFTANVTVKNTSSAPVDGWTLTFSFPSGQQVTQAWSSTVTQSGSAVTVRNAPWNGSIPAGGTAQFGFNGSHTGTNAAPTAFSLNGTPCTVG
On to B1, for which the “density of SLF-CBD on the BMCC surface at maximal effect of BMCC” value (130 pM with 1 μg/ml and 1500 pM with 44 μg/ml BMCC, 1.22 cm^2 per μg BMCC) is “about 4×10^10 molecules/cm^2”. In addition, under setting [1], the “SLF-CBD density at maximum stimulatory activity” value was 7×10^11 molecules per cm^2 and the “SLF-CBD density relative to estimated receptor density on the cell surface” value is reported as “about 60 times”. Besides, for the setting “receptor density estimate 1.1×10^10 per cm^2”, the “relative density of SLF-CBD vs c-kit receptor density on cell membrane at maximal effect of matrix” value is “four times”.
